Experiment [1] concerns the target Flag-human Lck (expressed in HEK293T cells) (human) (UniProt P06239). Kind of experiment: co-IP; plasmids cotransfected into HEK293T cells; lysates immunoprecipitated with anti-Flag antibody, immunoblotting.
For experiment [2], the target named is SHP1 (expressed in Jurkat TAg T cells) (UniProt P29350). Put plainly: condition: only resting T cells, without anti-CD3 stimulation; co-IP; plasmids cotransfected into Jurkat TAg T cells, 48 h, resting cells (no anti-CD3 stimulation); lysates immunoprecipitated with anti-Flag antibody, immunoblotting. Background: Immunoblotting shows a protein as a band on a membrane.

The chains behind the UniProt entries cited, without tags or fusion partners. Where a name states a change or a piece, a line headed by the entry shows the natural chain unless it says otherwise.
UniProt P06239: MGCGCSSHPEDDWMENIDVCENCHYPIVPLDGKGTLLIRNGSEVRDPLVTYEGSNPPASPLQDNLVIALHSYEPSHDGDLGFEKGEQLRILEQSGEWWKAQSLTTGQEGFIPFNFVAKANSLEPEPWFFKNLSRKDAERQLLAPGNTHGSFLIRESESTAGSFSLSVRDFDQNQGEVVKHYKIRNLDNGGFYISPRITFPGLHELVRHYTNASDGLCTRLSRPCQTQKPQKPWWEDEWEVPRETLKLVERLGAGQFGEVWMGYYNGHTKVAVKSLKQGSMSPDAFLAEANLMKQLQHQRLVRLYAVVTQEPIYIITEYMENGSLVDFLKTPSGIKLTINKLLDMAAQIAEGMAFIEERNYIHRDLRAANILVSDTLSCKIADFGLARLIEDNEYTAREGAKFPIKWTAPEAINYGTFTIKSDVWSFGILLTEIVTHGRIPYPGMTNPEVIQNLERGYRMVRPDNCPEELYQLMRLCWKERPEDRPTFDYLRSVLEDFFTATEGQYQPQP
UniProt P29350: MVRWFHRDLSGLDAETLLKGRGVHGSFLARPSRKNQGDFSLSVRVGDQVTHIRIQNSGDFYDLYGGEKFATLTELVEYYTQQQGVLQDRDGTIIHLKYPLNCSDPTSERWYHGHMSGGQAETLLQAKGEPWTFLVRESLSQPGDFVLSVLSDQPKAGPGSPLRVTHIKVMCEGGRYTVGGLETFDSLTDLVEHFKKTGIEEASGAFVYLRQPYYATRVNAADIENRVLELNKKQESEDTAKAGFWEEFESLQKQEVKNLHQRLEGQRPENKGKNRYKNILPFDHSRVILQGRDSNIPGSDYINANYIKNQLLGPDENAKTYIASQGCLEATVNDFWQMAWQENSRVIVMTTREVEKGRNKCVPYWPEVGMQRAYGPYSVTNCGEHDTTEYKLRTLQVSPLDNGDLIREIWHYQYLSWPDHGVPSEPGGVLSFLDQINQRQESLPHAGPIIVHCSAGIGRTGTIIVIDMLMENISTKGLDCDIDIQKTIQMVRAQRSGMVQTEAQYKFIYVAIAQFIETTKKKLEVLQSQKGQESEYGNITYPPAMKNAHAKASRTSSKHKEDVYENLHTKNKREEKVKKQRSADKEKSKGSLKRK

The target of experiment [3] is SHP2 (expressed in Jurkat TAg T cells) (UniProt Q06124). Described as above.
Experiment [4] addresses T1, SHIP1 (expressed in Jurkat TAg T cells) (UniProt Q92835).
T1 sequence: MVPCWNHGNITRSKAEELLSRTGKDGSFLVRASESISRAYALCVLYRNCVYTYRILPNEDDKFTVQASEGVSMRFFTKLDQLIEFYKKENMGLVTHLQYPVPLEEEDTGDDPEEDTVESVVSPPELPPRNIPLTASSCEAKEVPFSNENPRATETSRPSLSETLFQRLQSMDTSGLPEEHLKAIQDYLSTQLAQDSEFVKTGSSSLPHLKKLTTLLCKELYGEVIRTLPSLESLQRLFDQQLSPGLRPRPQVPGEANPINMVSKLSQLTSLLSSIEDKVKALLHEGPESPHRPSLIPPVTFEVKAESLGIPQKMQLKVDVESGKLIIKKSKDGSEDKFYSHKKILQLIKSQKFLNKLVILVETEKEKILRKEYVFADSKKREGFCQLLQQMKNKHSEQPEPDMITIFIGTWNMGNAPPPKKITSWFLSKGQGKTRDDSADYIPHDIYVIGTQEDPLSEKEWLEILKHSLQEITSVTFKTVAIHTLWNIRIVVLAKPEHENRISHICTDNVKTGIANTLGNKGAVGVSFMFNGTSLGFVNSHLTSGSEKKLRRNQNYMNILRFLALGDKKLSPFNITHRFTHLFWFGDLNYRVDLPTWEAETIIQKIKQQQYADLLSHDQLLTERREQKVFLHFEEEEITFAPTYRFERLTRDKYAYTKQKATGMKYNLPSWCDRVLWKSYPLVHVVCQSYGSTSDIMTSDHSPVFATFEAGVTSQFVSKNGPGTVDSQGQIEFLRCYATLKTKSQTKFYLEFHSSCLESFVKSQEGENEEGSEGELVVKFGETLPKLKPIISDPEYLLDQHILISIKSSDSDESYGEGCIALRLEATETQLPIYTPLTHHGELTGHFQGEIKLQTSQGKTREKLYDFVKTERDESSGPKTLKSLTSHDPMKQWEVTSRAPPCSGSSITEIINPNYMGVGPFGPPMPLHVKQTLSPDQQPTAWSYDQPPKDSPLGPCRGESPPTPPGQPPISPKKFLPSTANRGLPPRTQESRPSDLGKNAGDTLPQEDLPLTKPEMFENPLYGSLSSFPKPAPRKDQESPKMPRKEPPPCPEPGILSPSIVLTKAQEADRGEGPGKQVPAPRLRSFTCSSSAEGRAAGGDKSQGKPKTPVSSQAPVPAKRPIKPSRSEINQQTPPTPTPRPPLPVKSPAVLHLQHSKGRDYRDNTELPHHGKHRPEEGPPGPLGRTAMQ
The description is as above.

Experiment [5] addresses SHP1 (expressed in Jurkat TAg T cells) (UniProt P29350). Put plainly: co-IP; plasmids cotransfected into Jurkat TAg T cells, 48 h, stimulated with anti-CD3 antibody; lysates immunoprecipitated with anti-Flag antibody, immunoblotting.
For experiment [6], the target named is SHP2 (expressed in Jurkat TAg T cells) (UniProt Q06124). Described as above.
For experiment [7], the target named is T1, SHIP1 (expressed in Jurkat TAg T cells). The experiment is described as above.
The target of experiment [8] is Myc-BbLcLRR (expressed in HEK293T cells) (Branchiostoma belcheri). Put plainly: co-IP; plasmids cotransfected into HEK293T cells; lysates immunoprecipitated with anti-Myc antibody, immunoblotting; with or without pervanadate.
Experiment [9] has as its target Myc-BbLcLRR wild-type (expressed in Jurkat TAg T cells) (Branchiostoma belcheri). Kind of experiment: co-IP; Jurkat TAg T cells transfected 48 h, stimulated with anti-CD3 for the indicated times; lysates immunoprecipitated with anti-Myc antibody, immunoblotting with anti-Lck antibody.

No constants are given. Whether binding was seen depends on the method and setting. Binding seen in cells or lysates may run through a third protein. For part of these data: A result given as binding can be weak or reduced; the word gives no strength. For part of these data: Tags and fused reporters may be left off the sequences shown.

Data on four substances can be found in article PMC8211107.

Regarding “Myc-BbLcLRR (expressed in HEK293T cells) (from UniProt A0A8A6IFL1) (receptor)”, the binding result in [1] was “binds”.
Consider “Myc-BbLcLRR wild-type (expressed in Jurkat TAg T cells) (from UniProt A0A8A6IFL1) (receptor)”, for which the binding entry in [2] is listed as “no binding”; in experiment [3] it was “no binding”; in experiment [4] it was “no binding”; in experiment [5], “binds”; in experiment [6], “binds”; in [7], “binds”.
Take “Flag-human Lck (expressed in HEK293T cells) (from UniProt P06239-1 1-509) (enzyme)”: the binding entry in [8] is recorded as “binds”.
With “Lck, endogenous in Jurkat TAg T cells (from UniProt P06239 1-509) (enzyme)”, in experiment [9], the binding entry was “binds”.
